In one test the target is T1, WTNop58-GFP (human) (UniProt Q9Y2X3).
T1 sequence: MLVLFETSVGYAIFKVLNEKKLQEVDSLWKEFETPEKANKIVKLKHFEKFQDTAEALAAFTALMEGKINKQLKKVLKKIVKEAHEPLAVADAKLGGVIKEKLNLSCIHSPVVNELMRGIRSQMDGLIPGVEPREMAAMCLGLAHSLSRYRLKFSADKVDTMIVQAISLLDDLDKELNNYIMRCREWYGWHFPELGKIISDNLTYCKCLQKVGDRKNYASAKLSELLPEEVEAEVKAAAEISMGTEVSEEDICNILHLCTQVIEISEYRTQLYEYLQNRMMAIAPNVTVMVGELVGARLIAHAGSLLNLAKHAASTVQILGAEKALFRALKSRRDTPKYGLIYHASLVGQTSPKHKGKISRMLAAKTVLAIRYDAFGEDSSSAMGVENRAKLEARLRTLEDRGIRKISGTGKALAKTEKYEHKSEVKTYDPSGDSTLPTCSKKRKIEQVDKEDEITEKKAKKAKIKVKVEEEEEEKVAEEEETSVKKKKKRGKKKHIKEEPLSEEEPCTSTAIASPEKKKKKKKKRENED
The experiment in a line: co-IP; anti-GFP IP (GFP-TrapA beads, cell extract in HNTG buffer, 2 hr, 4°C) from U2OS cell nuclei stably expressing WTNop58-GFP or 2mutNop58-GFP; quantitative western blotting for fibrillarin (Figure S5C).

The target in test [1] is T2, fibrillarin (human (endogenous in U2OS)) (UniProt P22087).
T2 sequence: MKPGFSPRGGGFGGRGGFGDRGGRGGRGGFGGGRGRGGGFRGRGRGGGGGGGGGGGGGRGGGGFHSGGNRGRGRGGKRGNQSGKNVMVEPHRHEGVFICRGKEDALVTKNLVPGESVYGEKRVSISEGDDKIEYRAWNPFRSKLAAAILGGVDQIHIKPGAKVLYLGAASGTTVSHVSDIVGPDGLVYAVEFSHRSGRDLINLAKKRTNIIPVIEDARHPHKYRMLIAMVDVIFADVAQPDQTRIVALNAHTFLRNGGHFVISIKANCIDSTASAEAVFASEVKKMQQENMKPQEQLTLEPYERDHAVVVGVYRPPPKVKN
The test can be described thus: co-IP; IP of endogenous fibrillarin from cells transiently cotransfected with WTNop58-mCherry and/or 2mutNop58-GFP (Figure S5B).

No constants are given. Whether binding was seen depends on the method and setting. In cells and extracts the contact can be indirect. Some binding calls cover weakened binding; strength is not graded here. Sequences can lack the tags named with a protein.

B1: fibrillarin (protein, UniProt P22087 1-321)
chain: MKPGFSPRGGGFGGRGGFGDRGGRGGRGGFGGGRGRGGGFRGRGRGGGGGGGGGGGGGRGGGGFHSGGNRGRGRGGKRGNQSGKNVMVEPHRHEGVFICRGKEDALVTKNLVPGESVYGEKRVSISEGDDKIEYRAWNPFRSKLAAAILGGVDQIHIKPGAKVLYLGAASGTTVSHVSDIVGPDGLVYAVEFSHRSGRDLINLAKKRTNIIPVIEDARHPHKYRMLIAMVDVIFADVAQPDQTRIVALNAHTFLRNGGHFVISIKANCIDSTASAEAVFASEVKKMQQENMKPQEQLTLEPYERDHAVVVGVYRPPPKVKN
For the molecule B1, the binding result with WTNop58-GFP (human) is “binds”.

B2: WTNop58-mCherry (protein, UniProt Q9Y2X3 1-529)
chain: MLVLFETSVGYAIFKVLNEKKLQEVDSLWKEFETPEKANKIVKLKHFEKFQDTAEALAAFTALMEGKINKQLKKVLKKIVKEAHEPLAVADAKLGGVIKEKLNLSCIHSPVVNELMRGIRSQMDGLIPGVEPREMAAMCLGLAHSLSRYRLKFSADKVDTMIVQAISLLDDLDKELNNYIMRCREWYGWHFPELGKIISDNLTYCKCLQKVGDRKNYASAKLSELLPEEVEAEVKAAAEISMGTEVSEEDICNILHLCTQVIEISEYRTQLYEYLQNRMMAIAPNVTVMVGELVGARLIAHAGSLLNLAKHAASTVQILGAEKALFRALKSRRDTPKYGLIYHASLVGQTSPKHKGKISRMLAAKTVLAIRYDAFGEDSSSAMGVENRAKLEARLRTLEDRGIRKISGTGKALAKTEKYEHKSEVKTYDPSGDSTLPTCSKKRKIEQVDKEDEITEKKAKKAKIKVKVEEEEEEKVAEEEETSVKKKKKRGKKKHIKEEPLSEEEPCTSTAIASPEKKKKKKKKRENED
With B2, the binding result in test [1] is on record as “binds”.

B3: 2mutNop58-GFP (K467R, K497R) (protein, UniProt Q9Y2X3 1-529)
chain: MLVLFETSVGYAIFKVLNEKKLQEVDSLWKEFETPEKANKIVKLKHFEKFQDTAEALAAFTALMEGKINKQLKKVLKKIVKEAHEPLAVADAKLGGVIKEKLNLSCIHSPVVNELMRGIRSQMDGLIPGVEPREMAAMCLGLAHSLSRYRLKFSADKVDTMIVQAISLLDDLDKELNNYIMRCREWYGWHFPELGKIISDNLTYCKCLQKVGDRKNYASAKLSELLPEEVEAEVKAAAEISMGTEVSEEDICNILHLCTQVIEISEYRTQLYEYLQNRMMAIAPNVTVMVGELVGARLIAHAGSLLNLAKHAASTVQILGAEKALFRALKSRRDTPKYGLIYHASLVGQTSPKHKGKISRMLAAKTVLAIRYDAFGEDSSSAMGVENRAKLEARLRTLEDRGIRKISGTGKALAKTEKYEHKSEVKTYDPSGDSTLPTCSKKRKIEQVDKEDEITEKKAKKAKIKVRVEEEEEEKVAEEEETSVKKKKKRGKKKHIREEPLSEEEPCTSTAIASPEKKKKKKKKRENED
Consider B3, for which the binding result in test [1] is listed as “binds”.

These data come from PMC2938476.
